This assay in a line: qHTS Assay for Lipid Storage Modulators in Drosophila S3 Cells.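 As to cell number change: cells counted by Cell Tracker Red CMTPX staining in the red channel.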 The settings on record: BODIPY lipid droplet fluorescence, 18-24 h; for cell number change: measured here: cell count max response, cells fed with added oleic acid. The essentials: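 Drosophila S3 cells loaded with oleic acid (400 uM, as added) and compounds at several concentrations; lipid droplets imaged by 488-nm laser-scanning cytometry, 500–530 nm intensity and object ratio to cell channel. Percent activity normalized to 20 uM Triacsin C.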

Where [1] appears, read: measured here: lipid fluorescence (Fed channel) AC50, cells fed with added oleic acid.
Setting [2] is: measured here: cell number channel AC50, cells fed with added oleic acid.

Some of the results follow. These are further read-outs of the screen, such as a control signal, another cell line or another target. No call is given for them. Compounds called inactive in the main read-out are mostly missing here. Words in brackets tell the shape of the fitted curve; partial curves, single points and poor fits give uncertain potencies.

Turning to `Cc1noc(C)c1S(=O)(=O)N1CCC(C(=O)Nc2ccc(Br)cc2)CC1`, the AC50 under setting [1] is 2.06 µM [rising, partial curve].
As for `O=C(COC(=O)Cc1ccc(Cl)cc1)Nc1ccc(OC(F)F)cc1`, the cell number change came out at 15.8%. Also, under setting [1], the AC50 is 0.92 µM [rising, partial curve].
In the case of `O=C(Cn1ncc2c3ccccc3n(Cc3ccccc3)c2c1=O)NCCN1CCOCC1`, the cell number change was 4.72%. Moreover, under setting [1], the AC50 is 0.206 µM [falling, full curve, poor fit].
Consider `Cc1cccc(CSCCNC(=O)c2ccc(CN3CCOCC3)cc2)c1`, for which the cell number change is -1.08%.
For the compound `COc1ccccc1N1CCN(C(=O)CCCC2=NS(=O)(=O)c3ccccc3N2)CC1`, the cell number change was 0.702%. Moreover, the concentration at half-maximal activity (AC50) under setting [1] is 16.4 µM [rising, single point].
Regarding `CCOC(=O)Cn1c(=O)oc2cc(S(=O)(=O)N3CCCC(C(=O)OCC)C3)ccc21` (stereo not drawn), the cell number change turned out to be 0.408%.
Consider `COc1ccc(-c2c[n+]3c(n2-c2ccc(C)cc2)CCCCC3)cc1`, for which the cell number change was -62.6%. Moreover, the AC50 under setting [2] was 9.2 µM [falling, partial curve]. For the same compound, the AC50 under setting [1] was 8.2 µM [falling, partial curve].
On to `Cc1nc2ccc(NC(=O)c3ccco3)cc2nc1C`, for which the cell number change is -32.4%. Further, the AC50 under setting [1] was 5.17 µM [falling, single point].
With `c1nc(NC2CCCCC2)c2[nH]cnc2n1`, the cell number change was found to be 79.7%. Moreover, the AC50 under setting [2] is 5.8 µM [rising, partial curve]. In addition, the AC50 under setting [1] is 2.06 µM [rising, partial curve].
As to `COc1ccc(-c2oc3cccnc3c2C#CC2(O)CCCCC2)cc1`, the cell number change is -14.6%. Also, the AC50 under setting [1] is 23.1 µM [falling, single point].
With `CCCN(CC#CC(O)(c1ccccc1)c1cccnc1)CCC` (stereo not drawn), the cell number change was found to be 5.44%.
With `O=C(COC(=O)COc1ccc(Cl)cc1)NC1CC1`, the cell number change is 3.41%. Under setting [1], the half-maximal activity concentration (AC50) is 2.91 µM [falling, single point].
Regarding `CCN(CC)C1CCN(C(=O)c2ccc(OC3CCN(CCc4ccccc4)CC3)cc2)C1` (stereo not drawn), the cell number change came out at 7.43%. In addition, the AC50 under setting [1] is 3.26 µM [falling, partial curve, poor fit].
Regarding `CCN1C(=S)SC(=O)C1=C1C=C(C)N(CCOC)C(C)=C1`, the cell number change is 12.9%. Also, the AC50 under setting [1] was 0.259 µM [rising, partial curve, poor fit].
Regarding `Cc1ccc(S(=O)(=O)N(C)C)cc1NC(=O)C1CCCCN1S(=O)(=O)c1ccccc1` (stereo not drawn), the cell number change is -9.17%. For the same compound, under setting [2], the AC50 was 1.16 µM [rising, partial curve]. Under setting [1], the AC50 was 0.731 µM [rising, full curve].
Take `COc1cccc(C(=O)N2CCOCC2)c1OC`: the cell number change was found to be 18.5%.
With `Cc1ccc(N(C)S(=O)(=O)c2cccc(C(=O)Nc3nc4ccccc4[nH]3)c2)cc1`, the cell number change is -7.07%. Further, the AC50 under setting [1] is 32.6 µM [rising, single point].
Consider `Nc1cc(C(F)(F)F)ccc1OCC1CCCO1` (stereo not drawn), for which the cell number change is -6.18%. Besides, under setting [1], the AC50 was 0.164 µM [falling, full curve, poor fit].
Consider `Cc1sc(NC(=O)c2ccccc2)c(C(=O)NC(C)C)c1C`, for which the cell number change is 94.4%. For the same compound, the AC50 under setting [2] was 29.1 µM [rising, single point].
Take `O=C(O)COc1ccc2occ(C(=O)c3ccccc3)c2c1`: the cell number change was -1.45%.
For `COC(=O)NNC(=S)NCc1ccccc1`, the cell number change is -18.6%. Also, the AC50 under setting [1] was 4.61 µM [falling, full curve].
With `Cc1ccc(OCCCC(=O)ON=C(N)c2ccccc2C)cc1`, the cell number change is -22.7%. Under setting [2], the AC50 was 2.06 µM [falling, partial curve].
With `COC(=O)c1c(NC(=O)C2C3CCC(O3)C2C(=O)O)sc2c1CCCCCC2` (stereo not drawn), the cell number change is -10.3%. The AC50 under setting [2] was 1.46 µM [falling, partial curve]. Further, under setting [1], the AC50 was 23.1 µM [falling, single point].
In the case of `CCC1CCCCN1C(=O)CSc1nnc(CNC(=O)COc2ccc(Cl)cc2)o1` (stereo not drawn), the AC50 is 1.64 µM [rising, partial curve, poor fit] under setting [2] and 16.4 µM [falling, partial curve] under setting [1].
On to `Cc1ccc2oc(=O)c(-c3ccc(O)cc3)c(C)c2c1`, for which the cell number change is -22.9%. The AC50 under setting [1] was 0.116 µM [rising, full curve, poor fit].
With `CCc1nnc(NC(=O)Cc2sc(C)nc2-c2ccc(C)cc2)s1`, the cell number change is 13%.
The same measure, in the same setting: the same measure for `O=C(COC(=O)CNC(=O)c1ccc(Cl)cc1)Nc1ncc(C(F)(F)F)cc1Cl`: -12.8%.
For the compound `C=CCn1nc([N+](=O)[O-])nc1Sc1cccc2cccnc12`, the cell number change was -15.2%. Moreover, the concentration at half-maximal activity (AC50) under setting [1] is 32.6 µM [falling, single point].
In the case of `CCCCc1nc(NCCNC(=O)c2ccccc2)c(C#N)c2c1CSC(C)(C)C2`, the cell number change came out at 82.1%. Moreover, the AC50 under setting [2] is 1.84 µM [rising, full curve]. Also, the AC50 under setting [1] was 8.2 µM [rising, partial curve].
As for `O=C(CSc1ccc2nnc(-c3ccncc3)n2n1)Nc1ccc2c(c1)OCCO2`, the AC50 reads like this: under setting [2], 6.51 µM [rising, single point]; under setting [1], 6.51 µM [rising, single point].
With `COCc1cc(C)n(CC(=O)N/N=C/c2ccc(-c3ccc(Cl)c(C(=O)O)c3)o2)c(=O)c1C#N`, the cell number change came out at 8.52%. Also, under setting [1], the AC50 was 0.103 µM [falling, full curve, poor fit].
With `CN1CCN(CCCNC(=O)c2cn(C)c3ccc(S(=O)(=O)N(C)C)cc3c2=O)CC1`, the cell number change was found to be 33.4%. Besides, under setting [2], the AC50 was 3.26 µM [rising, single point].
Regarding `Cc1ccc(S(=O)(=O)NNc2nnc(C)c(=O)[nH]2)cc1`, the concentration at half-maximal activity (AC50) under setting [1] is 6.51 µM [falling, single point].
Same read-out and setting: for `O=c1cc(N2CCOCC2)[nH]c(=O)n1-c1ccc(Br)cc1` the value was 16.4 µM [falling, partial curve].
Regarding `Cc1oc(-c2ccccc2F)nc1CS(=O)CC(=O)NCc1ccccn1` (stereo not drawn), the cell number change is 10.2%. Besides, under setting [1], the AC50 was 29.1 µM [rising, single point].
Consider `O=C(NCc1ccccn1)c1ccc(NS(=O)(=O)c2cccc(Cl)c2)cc1`, for which the cell number change is -8.38%.
As for `O=C(CN1C(=O)CCOc2ccccc21)Nc1cccc(S(=O)(=O)N2CCOCC2)c1`, the cell number change stood at 12.9%. Also, under setting [2], the AC50 is 0.82 µM [falling, full curve].
For `CCCc1ccc2oc(C(=O)N3CCC[C@H]3CO)c(C)c2c1`, the cell number change is -1.23%. Further, the AC50 under setting [1] is 0.259 µM [rising, full curve].
As for `Cc1cccc(C(=O)Nc2ccc(C(=O)Nc3ccc(O)cc3)cc2)c1`, the cell number change was -34%. For the same compound, under setting [2], the AC50 was 12.6 µM [falling, single point]. For the same compound, the AC50 under setting [1] was 12.6 µM [falling, single point].
On to `CCOC(=O)C1CCCN(C(=O)c2sc3nc(C)nc(N4CCOCC4)c3c2C)C1` (stereo not drawn), for which the cell number change was -21.9%. For the same compound, the AC50 under setting [1] is 14.6 µM [rising, partial curve].
Regarding `Cc1[nH]c(=O)c(C#N)c2c1CCCC2`, the cell number change turned out to be 39.3%. Besides, the AC50 under setting [2] was 20.6 µM [rising, single point].
Take `O=C(CSC1=Nc2ccccc2C2=NC(c3ccccc3)C(=O)N12)NC1CCCCC1` (stereo not drawn): under setting [1], the AC50 was 0.92 µM [rising, partial curve, poor fit].
`Cc1nc(SCC(=O)Nc2ccc(Cl)cc2[N+](=O)[O-])nc(C)c1C`: the cell number change worked out at 18.6%. Besides, the AC50 under setting [1] is 9.2 µM [rising, partial curve, poor fit].
For `CC1(C)N([O-])C2=C(c3ccccc3C2=O)[N+](=O)C1(C)C`, the cell number change was -52.6%. Further, under setting [2], the AC50 was 16.4 µM [falling, single point]. In addition, the AC50 under setting [1] is 20.6 µM [falling, partial curve].
For `CCN(CC(=O)Nc1ccc(OC)cc1)C(=O)CN1C(=O)NC(C)(c2ccc3ccccc3c2)C1=O` (stereo not drawn), the cell number change stood at 27.6%. Moreover, the AC50 under setting [1] is 0.291 µM [rising, full curve].
For `CCCCC(=O)Nc1ccc(C(=O)Nc2ccc(S(=O)(=O)Nc3ccc(C)cc3)cc2)cc1`, the cell number change stood at 1.11%. The AC50 under setting [2] was 6.51 µM [falling, single point]. In addition, the AC50 under setting [1] is 29.1 µM [falling, single point].
Regarding `CN1C(=O)C(Cl)(Cl)C(=O)c2ccccc21`, the cell number change was -91%. In addition, the AC50 under setting [2] is 29.1 µM [falling, single point]. The AC50 under setting [1] was 20.6 µM [falling, partial curve].
With `Cn1cc(-c2ccccc2)cc(C#N)c1=O`, the cell number change was -30%.
Consider `CC(=O)c1ccc(N2CCN(S(=O)(=O)c3ccc4c(c3)CC(C)N4C(=O)C3CC3)CC2)cc1` (stereo not drawn), for which the cell number change was -5.38%. For the same compound, the AC50 under setting [1] is 29.1 µM [falling, single point].
Take `CCCSc1nc(C)c(C(C)=O)cc1C#N`: the cell number change came out at 17.9%. Under setting [2], the AC50 was 0.517 µM [falling, full curve]. Under setting [1], the AC50 is 6.51 µM [falling, single point].
Consider `O=C(NCc1ccco1)c1nc2c(nnn2Cc2ccccc2Cl)c(=O)[nH]1`, for which the cell number change is -13.4%. The AC50 under setting [1] was 4.11 µM [falling, partial curve].
Turning to `Cc1c(NC(=S)/C=C2\N(C)c3ccccc3C2(C)C)c(=O)n(-c2ccccc2)n1C`, the cell number change was -16.1%. Besides, the AC50 under setting [1] was 29.1 µM [falling, single point].
Take `COc1cc(C(=S)N2CCCC2)cc(Cl)c1O`: the cell number change is -96.1%. In addition, the AC50 under setting [2] is 18.4 µM [falling, partial curve]. Also, the AC50 under setting [1] is 23.1 µM [falling, single point].
Regarding `CCOC(=O)NC(=O)CSc1nc2ccc(C)cc2[nH]1`, the cell number change is -15.8%. Also, the AC50 under setting [1] is 16.4 µM [rising, single point].
On to `Clc1ccc(CCNc2nc3ccccc3s2)cc1`, for which the cell number change is -32%. Moreover, the half-maximal activity concentration (AC50) under setting [2] is 29.1 µM [falling, single point]. The AC50 under setting [1] was 29.1 µM [falling, single point].
As to `CN(C)c1ccc(Nc2c3c4c(cccc4n(C)c2=O)C(=O)c2ccccc2-3)cc1`, the cell number change is -62.2%. For the same compound, the AC50 under setting [2] was 2.06 µM [falling, full curve]. The AC50 under setting [1] was 1.84 µM [falling, full curve].
`Cn1c(COc2ccc3ccccc3c2)nnc1SCC(=O)O`: the cell number change worked out at 4.18%.
For the compound `CC1CCN(S(=O)(=O)c2ccc(C(=O)NCc3ccc4c(c3)OCO4)cc2)CC1`, the cell number change was 48.7%. The AC50 under setting [2] was 29.1 µM [rising, single point]. Also, under setting [1], the AC50 is 29.1 µM [rising, single point].
Take `COc1cc(NC(=O)COc2ccc(Cl)cc2)ccc1-c1cc2ccccc2oc1=O`: the cell number change was -0.262%. For the same compound, under setting [1], the AC50 is 1.46 µM [rising, full curve].

Source of the values: PubChem BioAssay AID2685 (National Center for Advancing Translational Sciences (NCATS), 2010).
